Assay results: the supplement of paper PMC6078165

Tested on: BT20
Assay: relative JC-1 red fluorescence (viability) vs pre-drug, coculture with fibroblast (fraction); higher = more viable cancer cells
Conditions: 100 µM
Protocol: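 JC-1 labelled TNBC cells cocultured 1:1 (1,500 cells each) with CellTrace Violet stained primary or stromal fibroblasts in 384-well plates in FluoroBrite medium, treated with one of 42 anticancer drugs at 0.1, 1, 10 or 100 uM. JC-1 red fluorescence (mitochondrial integrity in cancer cells only) was read by plate reader every 8 h for 72 h. Values are normalised to each well's pre-drug value. The stock of one drug was tenfold lower, so its dose labels may be too high.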

Nc1ncn([C@@H]2O[C@H](CO)[C@@H](O)[C@H]2O)c(=O)n1 [Azacitidine]
relative JC-1 red fluorescence
Conditions	40 h	48 h	56 h	64 h	72 h
coculture fibroblast: C12385	–	0.564	0.551	0.546	0.536
coculture fibroblast: H6013	–	0.535	0.557	0.553	0.548
coculture fibroblast: H6019	–	0.495	0.504	0.526	0.546
coculture fibroblast: H6076	–	0.49	0.488	0.497	0.492
coculture fibroblast: H6231	–	0.6497	0.6097	0.585	0.55123
coculture fibroblast: HADF	–	0.738	0.73	0.711	0.675
coculture fibroblast: HCFa	–	0.462	0.455	0.445	0.42
coculture fibroblast: HCPF	–	0.625	0.598	0.595	0.553
coculture fibroblast: HHSteC	0.716	0.691	0.681	0.658	0.628
coculture fibroblast: HMF	0.691	0.662	0.635	0.61	0.587
coculture fibroblast: HPFa	0.538	0.518	0.525	0.514	0.491
coculture fibroblast: HUF	0.63	0.599	0.58	0.565	0.546
coculture fibroblast: Hs5	0.626	0.6	0.59	0.576	0.561
coculture fibroblast: Hs27A	0.806	0.791	0.796	0.886	0.845
coculture fibroblast: Hs343T	0.691	0.667	0.632	0.619	0.58
coculture fibroblast: WS1	0.523	0.506	0.491	0.487	0.485

The reference is the same well before dosing, and untreated signal decays as well.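 Labels refer to human fibroblasts, largely primary: uterine (C12385, HUF), lung (H6013), bone (Hs27A), adrenal (HADF), skin (WS1), plus mammary HMF and breast cancer-associated Hs343T. Cancer lines are basal-like or mesenchymal-like triple-negative breast cancer. The paper counts as hits responses shifting over 3x the replicate standard deviation. The tissue of the other fibroblasts is not given here.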
